Hit rate of the full screen: of about 78,000 compounds, about 1,800 (2.3%) were called active. The shares of active, inactive and inconclusive entries below differ from those in the screen. Cut-off read from the data, not from the text of the source: active = inhibition above about 30%; inconclusive = mostly about 10% to 28%; inactive = weaker than that.
The compounds below were run against Interleukin-1 receptor-like 1 (Homo sapiens) (UniProt Q01638) (assay: blocks human ST2 binding to IL-33, primary screen, biochemical, AlphaLISA (AID 1259354)). Details: AlphaLISA ST2-Fc/biotin-IL-33 interaction, 1 h; at 17 µM, hits give high values.

Sequences of proteins named here, by UniProt entry; tags and fusion partners are left off. A change or cut given only in a name is not applied to a line headed by its entry.
UniProt Q01638: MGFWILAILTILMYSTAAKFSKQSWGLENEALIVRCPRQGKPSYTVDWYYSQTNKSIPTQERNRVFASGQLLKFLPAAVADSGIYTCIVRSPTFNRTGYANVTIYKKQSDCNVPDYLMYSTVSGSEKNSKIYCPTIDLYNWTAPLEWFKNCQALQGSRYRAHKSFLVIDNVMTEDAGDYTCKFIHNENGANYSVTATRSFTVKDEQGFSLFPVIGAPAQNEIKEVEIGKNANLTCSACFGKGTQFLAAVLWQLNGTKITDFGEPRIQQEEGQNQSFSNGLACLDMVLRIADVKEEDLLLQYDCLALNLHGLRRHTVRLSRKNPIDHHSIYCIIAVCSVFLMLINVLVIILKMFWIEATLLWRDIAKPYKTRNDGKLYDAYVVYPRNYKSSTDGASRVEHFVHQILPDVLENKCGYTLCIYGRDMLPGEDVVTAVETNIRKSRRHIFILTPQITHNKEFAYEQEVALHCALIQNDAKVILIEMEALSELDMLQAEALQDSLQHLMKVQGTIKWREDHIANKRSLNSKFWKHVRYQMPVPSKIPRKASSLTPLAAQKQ

Row | Structure (SMILES) | inhibition
1 | O=C1NC(c2cc3c(cc2Cl)OCO3)Nc2sc3c(c21)CCCC3 (stereo not drawn) | inactive
2 | Cc1ccccc1NC(=O)c1cnn2c(C(F)(F)F)cc(-c3ccco3)nc12 | inconclusive: 12%
3 | CC(=O)N1[C@@H](c2ccc(Cl)cc2Cl)SC[C@H]1C(=O)O | inconclusive: 10%
4 | COc1cc(-c2nc(N3CCC(C)CC3)c3ccccc3n2)cc(OC)c1OC | inactive
5 | Cc1ccc(C(=O)Nc2ccc(I)cc2Cl)cc1C | inactive
6 | CCOc1cc(/C=C/c2ccccc2OC)cc(=O)c2c(C)oc(C)c12 | inconclusive: 20%
7 | O=C(O)/C=C/c1cccc(N=Cc2ccc([N+](=O)[O-])o2)c1 | inconclusive: 23%
8 | COc1cc(CN2CCC3(CC2)C(=O)N(CCCc2cccnc2)C(=O)N3CC(C)C)ccc1F | inconclusive: 27%
9 | Cc1cc([N+](=O)[O-])nn1CCCC(=O)N1CCN(c2ccc(F)cc2)CC1 | inconclusive: 13%
10 | O=S(=O)(CC1CC1)c1ncc(CN2CCSCC2)n1CC1CCCCC1 | inconclusive: 10%
11 | Cc1cc(N2CCN(Cc3cc4n(n3)CCCNC4)CC2)n2ncnc2n1 | inconclusive: 12%
12 | CCOc1cc(C(=O)Nc2nc3ccc([N+](=O)[O-])cc3s2)cc(OCC)c1OCC | inactive
13 | Cc1ccc(N2C(=O)CSC2c2ccc([N+](=O)[O-])cc2)c(Br)c1 (stereo not drawn) | inconclusive: 20%
14 | CC(=O)NCCC1CCCCN1Cc1cc2cc(C)cc(C)c2[nH]c1=O (stereo not drawn) | inactive
15 | CC(=O)Nc1ccc(Cl)c(C(=O)NC(C)CCN2CCOCC2)c1 (stereo not drawn) | inconclusive: 11%
16 | Cc1[nH]cnc1-c1nccn1CCc1cnn(-c2ccccc2)c1 | inconclusive: 13%
17 | COc1ccc(C(=O)N2C[C@@H]3C[C@H](C2)c2c(-c4cc5ccccc5s4)ccc(=O)n2C3)cc1 | inconclusive: 19%
18 | CC(=O)c1ccc(NC(=O)c2ccc(NC(=O)C3CCCO3)cc2)cc1 (stereo not drawn) | inconclusive: 20%
19 | CCCOC(=O)C1=C(C)NC2=C(C(=O)C(C(=O)OC)C(C)C2)C1c1coc2ccc(C)cc2c1=O (stereo not drawn) | inactive
20 | Cn1c(=O)c2c(nc(N3CCOCC3)n2CCSc2nc3ccccc3s2)n(C)c1=O | inactive

Row | Structure (SMILES) | inhibition
21 | COc1ccc(N2CCCS2(=O)=O)cc1NC(=O)c1ccccc1Br | inactive
22 | CCOc1ccccc1NC(=O)C1CCN(C(=O)c2cccs2)CC1 | inconclusive: 16%
23 | CC(C)n1cnnc1CN(C)C(=O)C(O)c1ccc(C(F)(F)F)cc1 (stereo not drawn) | inactive
24 | CC[C@@]12C[C@H]3C[C@@](O)(C1)C[C@](C(=O)NCCC(=O)Nc1nccs1)(C3)C2 | inconclusive: 12%
25 | CCN(CC)c1c(Cl)c(Cl)nc(Cl)c1C(=O)O | inactive
26 | O=Nc1ccc(NOC(=O)/C=C\c2ccccc2)cc1 | inconclusive: 24%
27 | CN(C)c1ccnc(SCC(=O)Nc2ccccc2)c1C#N | inconclusive: 10%
28 | Cc1ccc(S(=O)(=O)NC(C)(C)C)cc1[N+](=O)[O-] | inconclusive: 13%
29 | CCCCS(=O)(=O)N1CCCn2nc(C(=O)N3CCOCC3)cc2C1 | inactive
30 | CN(Cc1ccccc1)C(=O)c1ccc(Br)cc1 | inconclusive: 11%
31 | O[C@@H]1C[C@@H](c2nc(-c3ccccc3)no2)N(Cc2cccc(OC(F)(F)F)c2)C1 | inconclusive: 13%
32 | Cc1cnccc1N1CCCN(Cc2cn[nH]c2C(=O)O)CC1 | inconclusive: 15%
33 | C=CCn1ccc(-c2cccc(-c3cc(C(=O)N4CCCC4)ccn3)c2)n1 | inconclusive: 28%
34 | CNCC(=O)NCCc1nc(-c2ccccn2)no1 | inconclusive: 21%
35 | NC(=O)c1ccc(Sc2nc3ccccc3s2)c([N+](=O)[O-])c1 | inconclusive: 18%
36 | Cc1cc(C)n2nc(SC(C)C(=O)NC3CCCCC3)nc2n1 (stereo not drawn) | inactive
37 | Cc1ccc(Cc2c(C)nc3nc(SCC(=O)NCCC(C)C)nn3c2C)cc1 | inconclusive: 12%
38 | O=C(c1cc(-c2cccs2)nc2ccccc12)N1CCCC1 | inconclusive: 13%
39 | CSc1cccc(NC(=O)N2CCC(CCC(=O)N(C)Cc3ccccc3)CC2)c1 | inconclusive: 15%
40 | CC(=O)N1CCCn2nc(C(=O)NCCNc3ncccc3C)cc2C1 | inconclusive: 14%

Row | Structure (SMILES) | inhibition
41 | N#CC1=C(N)N(c2ccccc2C#N)C2=C(C(=O)CCC2)C1c1ccc2c(c1)OCO2 (stereo not drawn) | inconclusive: 17%
42 | CC1CCc2oc3cc([N+](=O)[O-])cc([N+](=O)[O-])c3c2C1 (stereo not drawn) | active: 59%
43 | O=C(Nc1ccc(OC(F)(F)F)cc1)N[C@@H]1C=C(C(=O)N[C@H]2CCCNC2=O)C[C@@H](O)[C@@H]1O | inconclusive: 10%
44 | Cc1csc(-c2cc(C(=O)NCCN3CCOCC3)cc(S(=O)(=O)N3CCOCC3)c2)c1 | inconclusive: 13%
45 | Nc1c(C(=O)c2ccc(F)cc2)oc2ccccc12 | inconclusive: 14%
46 | COc1cccc(C2C3=C(CC(C)(C)CC3=O)Nc3ccccc3N2C(=O)C(F)(F)F)c1 (stereo not drawn) | inactive
47 | c1nc(C2CCNCC2)cc(N2CC3CC4CC2C[C@@H](C4)C3)n1 | inconclusive: 12%
48 | CCSc1nc2c(c(=O)[nH]1)C(c1cc(OC)ccc1OC)C1=C(CCCC1=O)N2 (stereo not drawn) | inconclusive: 14%
49 | COc1ccc(CN2CCCC(CCNS(C)(=O)=O)C2)cc1C (stereo not drawn) | inconclusive: 23%
50 | COc1ccc2cc(C(=O)Nc3ccccc3C)c(=N)oc2c1 | inconclusive: 22%
51 | Cc1cc(=O)[nH]c(SCC(=O)Nc2cccc(F)c2)n1 | inactive
52 | CNC1CCN(C(=O)c2cccc(NCc3ccc(F)cc3)c2)CC1 | inactive
53 | COc1ccc(CN2C(=O)CO[C@H]3CN(C(=O)c4ccno4)C[C@H]32)cc1 | inactive
54 | O=C1Nc2ccc(-c3cccc(C(F)(F)F)c3)cc2C(=O)N2C[C@H](O)C[C@@H]12 | inconclusive: 16%
55 | COc1cc(/C=C2/C(=O)N(c3ccc(Cl)c(Cl)c3)N=C2C)ccc1O | inconclusive: 22%
56 | CCOc1ccccc1N1C(=O)c2c(C)nc3ccccc3c2C1=O | inconclusive: 15%
57 | C=CCn1c(SCC(=O)N2CCOCC2)nc2sc3c(c2c1=O)CCC3 | inconclusive: 13%
58 | COc1ccc(-c2noc(-c3ccc(Cl)cc3)n2)cc1OC | inconclusive: 14%

Sorted by length of the SMILES (rising): 3 of the compounds above.
Row | Structure (SMILES) | inhibition
47 | c1nc(C2CCNCC2)cc(N2CC3CC4CC2C[C@@H](C4)C3)n1 | inconclusive: 12%
41 | N#CC1=C(N)N(c2ccccc2C#N)C2=C(C(=O)CCC2)C1c1ccc2c(c1)OCO2 (stereo not drawn) | inconclusive: 17%
46 | COc1cccc(C2C3=C(CC(C)(C)CC3=O)Nc3ccccc3N2C(=O)C(F)(F)F)c1 (stereo not drawn) | inactive

— PubChem BioAssay AID1259354 (Paczesny and Yang Labs, IUPUI and University of Michigan, 2018)
